For assay [1], the target named is T1, H639A-APEX2 (enzymatically inactive mutant of nSMase2 C-terminally fused to EGFP-FLAG-APEX2) (human) (UniProt Q9NY59).
T1 sequence: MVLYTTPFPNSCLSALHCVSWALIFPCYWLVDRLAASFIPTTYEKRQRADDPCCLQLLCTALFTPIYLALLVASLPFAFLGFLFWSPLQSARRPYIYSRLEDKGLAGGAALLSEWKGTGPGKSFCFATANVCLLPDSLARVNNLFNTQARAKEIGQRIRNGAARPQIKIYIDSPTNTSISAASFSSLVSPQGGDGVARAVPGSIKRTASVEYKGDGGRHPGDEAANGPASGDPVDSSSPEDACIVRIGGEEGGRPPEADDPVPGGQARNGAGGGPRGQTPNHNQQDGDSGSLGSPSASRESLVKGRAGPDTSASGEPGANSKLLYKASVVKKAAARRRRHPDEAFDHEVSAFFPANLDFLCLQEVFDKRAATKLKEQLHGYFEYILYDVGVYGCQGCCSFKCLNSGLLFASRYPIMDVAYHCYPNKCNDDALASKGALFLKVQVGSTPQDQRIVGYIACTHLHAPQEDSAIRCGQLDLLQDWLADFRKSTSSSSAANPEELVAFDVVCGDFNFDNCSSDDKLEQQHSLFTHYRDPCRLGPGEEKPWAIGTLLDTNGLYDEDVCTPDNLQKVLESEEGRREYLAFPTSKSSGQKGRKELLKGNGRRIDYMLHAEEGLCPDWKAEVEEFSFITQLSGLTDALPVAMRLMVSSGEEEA
Put plainly: proximity labelling; as a1, H639A-APEX2 cells at 2 min (and 5 min) of 100 ng/mL TNFα, where the paper reports that the enrichment is lost.

By UniProt entry, the sequences of proteins in these tests, tags left out.
UniProt O75530: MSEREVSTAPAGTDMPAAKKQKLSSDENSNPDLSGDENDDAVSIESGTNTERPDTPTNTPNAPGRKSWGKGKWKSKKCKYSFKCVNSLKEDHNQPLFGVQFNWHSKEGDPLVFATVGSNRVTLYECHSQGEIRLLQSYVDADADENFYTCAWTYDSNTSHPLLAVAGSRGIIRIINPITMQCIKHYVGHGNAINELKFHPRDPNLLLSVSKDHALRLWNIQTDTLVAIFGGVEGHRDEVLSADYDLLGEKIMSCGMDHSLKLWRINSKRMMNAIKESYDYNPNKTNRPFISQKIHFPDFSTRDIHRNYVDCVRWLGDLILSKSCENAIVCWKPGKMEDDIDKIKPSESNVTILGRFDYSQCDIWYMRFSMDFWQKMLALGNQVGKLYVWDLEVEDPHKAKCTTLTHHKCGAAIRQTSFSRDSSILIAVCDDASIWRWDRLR
UniProt Q92636: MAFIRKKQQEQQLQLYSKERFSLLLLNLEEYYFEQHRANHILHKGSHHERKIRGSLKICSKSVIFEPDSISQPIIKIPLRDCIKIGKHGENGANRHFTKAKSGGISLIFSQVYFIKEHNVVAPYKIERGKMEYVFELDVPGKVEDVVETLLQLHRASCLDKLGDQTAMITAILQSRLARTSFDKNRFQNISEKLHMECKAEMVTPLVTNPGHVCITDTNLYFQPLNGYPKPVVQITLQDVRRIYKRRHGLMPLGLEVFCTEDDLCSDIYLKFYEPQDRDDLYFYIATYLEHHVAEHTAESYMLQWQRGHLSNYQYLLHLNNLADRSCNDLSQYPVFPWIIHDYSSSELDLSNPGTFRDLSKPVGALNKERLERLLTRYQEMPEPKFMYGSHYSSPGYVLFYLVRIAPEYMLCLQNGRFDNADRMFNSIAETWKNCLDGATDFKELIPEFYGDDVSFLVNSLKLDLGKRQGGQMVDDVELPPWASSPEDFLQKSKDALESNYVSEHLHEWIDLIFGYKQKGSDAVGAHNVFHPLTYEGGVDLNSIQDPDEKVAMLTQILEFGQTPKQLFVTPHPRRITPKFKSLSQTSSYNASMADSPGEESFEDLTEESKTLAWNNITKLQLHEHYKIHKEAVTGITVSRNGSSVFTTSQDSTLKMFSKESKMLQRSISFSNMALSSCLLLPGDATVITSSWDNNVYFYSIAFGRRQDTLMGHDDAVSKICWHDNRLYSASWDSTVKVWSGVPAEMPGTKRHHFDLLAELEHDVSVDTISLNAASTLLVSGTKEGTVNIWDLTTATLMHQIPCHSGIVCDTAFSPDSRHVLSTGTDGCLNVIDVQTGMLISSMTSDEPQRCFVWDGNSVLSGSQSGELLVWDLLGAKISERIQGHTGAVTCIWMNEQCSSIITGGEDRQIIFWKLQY
UniProt O94901: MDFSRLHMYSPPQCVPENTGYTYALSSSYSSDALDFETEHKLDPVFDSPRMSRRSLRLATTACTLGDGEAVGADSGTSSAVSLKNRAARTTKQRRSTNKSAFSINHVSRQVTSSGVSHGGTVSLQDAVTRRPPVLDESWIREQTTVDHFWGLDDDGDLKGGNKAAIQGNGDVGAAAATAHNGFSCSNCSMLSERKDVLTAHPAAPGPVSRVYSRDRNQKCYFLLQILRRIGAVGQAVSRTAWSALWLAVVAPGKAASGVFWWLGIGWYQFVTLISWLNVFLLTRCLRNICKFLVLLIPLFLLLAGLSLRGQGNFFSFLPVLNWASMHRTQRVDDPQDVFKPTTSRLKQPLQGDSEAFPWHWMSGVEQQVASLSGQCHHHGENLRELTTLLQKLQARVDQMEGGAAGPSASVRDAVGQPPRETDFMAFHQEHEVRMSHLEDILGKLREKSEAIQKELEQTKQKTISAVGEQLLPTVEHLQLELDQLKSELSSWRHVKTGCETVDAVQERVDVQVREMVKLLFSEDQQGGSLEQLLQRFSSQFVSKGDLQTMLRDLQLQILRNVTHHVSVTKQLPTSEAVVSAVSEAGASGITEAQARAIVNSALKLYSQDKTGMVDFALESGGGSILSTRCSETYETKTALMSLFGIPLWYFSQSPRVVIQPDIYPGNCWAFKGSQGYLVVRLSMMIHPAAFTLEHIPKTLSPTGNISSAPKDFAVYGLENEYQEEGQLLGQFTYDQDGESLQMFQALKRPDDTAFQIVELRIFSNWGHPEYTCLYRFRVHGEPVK

Assay [2] concerns the target T1, H639A-APEX2 (enzymatically inactive mutant of nSMase2 C-terminally fused to EGFP-FLAG-APEX2) (human). Nature of the assay: proximity labelling; APEX2 fused to nSMase2 (or H639A) in living Jurkat cells; 1 mM biotin-phenol 30 min at 37°C, 1 mM H2O2 for the final 1 min; 100 ng/mL TNFα for 1, 2 or 5 min or none; streptavidin magnetic beads after removal of excess biotin-phenol, label-free LC-MS/MS; enrichment of TNFα-treated against untreated cells.

Assay [3] concerns the target T2, nSMase2-APEX2 fusion protein (neutral sphingomyelinase 2 C-terminally fused to EGFP-FLAG-APEX2) (human) (UniProt Q9NY59).
T2 sequence: T1 sequence with A639H
Described as above.

Assay [4] concerns the target T2, nSMase2-APEX2 fusion protein (neutral sphingomyelinase 2 C-terminally fused to EGFP-FLAG-APEX2) (human). Described as above. This is another data set of the same source.

Where a chain is given by its changes, count along the chain named. Like-named read-outs stand apart in the source and are kept apart here. No constants are given. Whether binding was seen depends on the method and setting. In cells and extracts the contact can be indirect. Here binding means that the protein was enriched with, or labelled near, the bait; the list need not be complete. For some assays here: A no says only that the protein was not detected with the bait. Tags and fused reporters may be left off the sequences shown.

The values that follow come from paper PMC11263205.

With “EED (polycomb protein embryonic ectoderm development) (from UniProt O75530 1-441)”, the binding entry in assay [1] is recorded as “no binding (only after 2 min of TNFα stimulation)”; in assay [2] it was “binds”; in assay [3] it was “binds”.
For the molecule “FAN (factor associated with nSMase2 activation) (from UniProt Q92636 1-917)”, the binding entry in assay [2] and in assay [3] was “binds” each time.
On to “PPP3CA, subunit of PP2B (Ca2+/calmodulin-dependent serine/threonine phosphatase calcineurin) (from UniProt Q08209 1-521)”, for which the binding entry in assay [3] is “binds”.
For the molecule SUN1 (from UniProt O94901 1-785), the binding result in assay [3] is on record as “binds”.

B1: STOM (protein, UniProt P27105 1-288)
chain: MAEKRHTRDSEAQRLPDSFKDSPSKGLGPCGWILVAFSFLFTVITFPISIWMCIKIIKEYERAIIFRLGRILQGGAKGPGLFFILPCTDSFIKVDMRTISFDIPPQEILTKDSVTISVDGVVYYRVQNATLAVANITNADSATRLLAQTTLRNVLGTKNLSQILSDREEIAHNMQSTLDDATDAWGIKVERVEIKDVKLPVQLQRAMAAEAEASREARAKVIAAEGEMNASRALKEASMVITESPAALQLRYLQTLTTIAAEKNSTIVFPLPIDMLQGIIGAKHSHLG
With B1, in assay [4], the binding entry is on record as “binds”.
